Assay results reported in PubChem BioAssay AID504444 (National Center for Advancing Translational Sciences (NCATS), 2011).
Among all 360,000 compounds or so, about 7,500 (2.1%) were called active. The shares of active, inactive and inconclusive entries below differ from those in the screen. The call rests on the fitted dose curve; in most records, active means well fitted inhibition curve with a large enough effect; inconclusive means small, poorly fitted or top-dose-only effect, or effect the other way; inactive means flat fitted curve, though single readings scatter. A potency beside an inconclusive call is a rough fit, not a confirmed value.

assay: Nrf2 qHTS screen for inhibitors; details: A549 ARE-Fluc reporter, luciferase luminescence, 18-24 h; series mostly up to 46 µM; further: nearly all actives have a fitted effect of over 60% in size
Summary of the method: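 In this cell-based qHTS, ARE-driven firefly luciferase in A549 cells reports Nrf2 activity; the luminescent signal after BugLite lysis is the measured value, with a prior CellTiter-Fluor read for cell health.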
Potency means the concentration at half of the fitted maximal effect.

Row | Structure (SMILES) | Potency
1 | CC1CCCCC12NC(=O)N(CC(=O)N1CCN(S(=O)(=O)Cc3ccccc3)CC1)C2=O (centres undefined) | inconclusive: 29.1 µM [falling, single point]
2 | Cc1ccc(CN2C(=O)CCSc3ccc(Cl)cc32)cc1 | inconclusive: 2.06 µM [activator, partial curve, poor fit]
3 | O=C1Nc2ccc(S(=O)(=O)N3CCCC3)c3ccc(S(=O)(=O)N4CCCC4)c1c23 | inconclusive: 9.2 µM [falling, partial curve]
4 | S=C(Nc1ccc2[nH]ccc2c1)NC1CCCCC1 | inconclusive: 2.91 µM [activator, partial curve]
5 | CC1Oc2ccccc2C=C1/C=N/NC(=O)c1ccccc1 (centres undefined) | inconclusive: 2.31 µM [activator, full curve]
6 | Cc1cccc([C@@H]2[C@@H]3C(=O)N(Cc4ccccc4)C(=O)[C@@H]3[C@]3(Cc4ccccc4)C(=O)N(c4cccc(Cl)c4)C(=O)N23)c1 | inconclusive: 5.8 µM [activator, partial curve]
7 | O=C(Nc1ccc(C#Cc2ccccc2)cc1)C1CC1 | inconclusive: 13 µM [activator, partial curve, poor fit]
8 | COc1ccc(Cn2c(C(=O)O)c(CNCCc3cc(OC)ccc3OC)c3ccc(C)cc32)cc1 | inconclusive: 29.1 µM [falling, single point]
9 | COc1cccc(/C=N/Nc2ccc(S(=O)(=O)Nc3ccccc3C(=O)O)cc2[N+](=O)[O-])c1O | inactive
10 | CCN1CCN(Cc2ccc(NC(=O)c3cc(NC(=O)c4cnnc5ccccc45)cc(OC)c3)cc2C(F)(F)F)CC1 | inactive
11 | CC(=O)Nc1ccccc1NC(=O)C/C(C)=N/NC(=O)c1ccccn1 | inconclusive: 2.31 µM [activator, full curve, poor fit]
12 | Nc1c(N2CCCC2)cc(Cl)c2nonc12 | active: 16.4 µM
13 | O=C1N(c2cccc(Cl)c2)C(c2ccccc2)N2CCCN12 (centres undefined) | inconclusive: 0.731 µM [activator, full curve, poor fit]
14 | Cc1ccc(S(=O)(=O)Nc2nc3n(n2)C(c2ccc(F)cc2)C=C(c2ccccc2)N3)cc1 (centres undefined) | inconclusive: 29.1 µM [falling, single point]
15 | CC(C)[C@H](NC(=O)c1ccccc1Cl)C(=O)OCc1cc([N+](=O)[O-])cc2c1OCOC2 | inactive
16 | CN(c1ccc(F)cc1)S(=O)(=O)c1ccc(Cl)c(C(=O)NCC2(N3CCOCC3)CCCCC2)c1 | inconclusive: 16.4 µM [falling, single point]
17 | O=C(O)c1ccccc1NSc1ccccc1[N+](=O)[O-] | inconclusive: 0.517 µM [activator, full curve, poor fit]
18 | Cc1cnc(C(=O)OCC(=O)N2c3ccccc3CC2C)cn1 (centres undefined) | inconclusive: 3.66 µM [falling, partial curve, poor fit]
19 | CC(C)(C)c1ccc(OCCC(=O)NCCc2ccc(S(N)(=O)=O)cc2)cc1 | inconclusive: 29.1 µM [falling, single point]
20 | COC(=O)CCc1nc2ccccc2[nH]c1=O | inactive
21 | Cc1csc(=O)n1CC(=O)OCc1cccc2ccccc12 | inconclusive: 7.31 µM [activator, partial curve, poor fit]
22 | Cc1nnsc1C(=O)Nc1ccc(S(=O)(=O)N2CCCCC2C)cc1 (centres undefined) | inconclusive: 20.6 µM [falling, single point]

Row | Structure (SMILES) | Potency
23 | CC(C)(C)NC(=O)NC(=O)CN1CCN(c2ccccc2)CC1 | inactive
24 | CSCCNCc1c(C(=O)N2CCOCC2)nc2c(C)cccn12 | inactive
25 | C/C(=N\OC(=O)Nc1ccc(Cl)cc1)c1ccc(F)c(F)c1 | inactive
26 | Cc1cc(C)n(-c2nnc(Nc3ccc(C)c(Cl)c3)c3ccccc23)n1 | inconclusive: 32.6 µM [falling, partial curve, poor fit]
27 | CCOC(=O)c1sc(NC(=O)Cc2c(F)cccc2Cl)nc1C | inconclusive: 25.9 µM [falling, single point]
28 | O=C(Nc1ccc(F)cc1)Nc1ccc(S(=O)(=O)N2CCCC2)cc1 | inconclusive: 4.11 µM [falling, partial curve, poor fit]
29 | Cc1ccnc(Nc2nc(-c3ccc(Cl)cc3)cs2)c1 | inconclusive: 5.17 µM [activator, full curve, poor fit]
30 | CCc1ccc(NC(=O)COC(=O)C2(c3ccc(Cl)cc3)CCCC2)cc1 | inconclusive: 23.1 µM [falling, single point]
31 | COc1ccc(/C(N)=N/OC(=O)Cc2ccc(C)cc2)cc1 | inconclusive: 29.1 µM [activator, single point]
32 | Cc1ccc(CN2CCN(CC(=O)N=Nc3c(O)[nH]c4ccccc34)CC2)cc1 | inconclusive: 16.4 µM [falling, single point]
33 | COc1ccccc1/C=C1/SC(=S)N(CCC(=O)Nc2cccnc2)C1=O | inconclusive: 2.91 µM [falling, partial curve, poor fit]
34 | CCCCC(=O)NCCNc1nc2c(c(=O)n(C)c(=O)n2C)n1Cc1ccccc1 | inconclusive: 7.31 µM [falling, partial curve, poor fit]
35 | O=[N+]([O-])c1cc(N=Nc2ccc3ccccc3c2)ccc1O | inconclusive: 23.1 µM [falling, single point]
36 | COc1ccc(NC(=O)Nc2ccc3[nH]ccc3c2)cc1 | inconclusive: 9.2 µM [activator, partial curve]
37 | COc1ccccc1CN(C)C(=O)c1ccc(S(=O)(=O)NCc2ccco2)cc1 | inconclusive: 36.6 µM [falling, partial curve, poor fit]
38 | O=C(CSc1ncnc2c1cnn2CCc1ccccc1)Nc1cccc(C(F)(F)F)c1 | inconclusive: 7.31 µM [falling, partial curve, poor fit]
39 | CCN(CC(=O)NC)S(=O)(=O)c1ccc(Br)cc1 | inconclusive: 2.91 µM [activator, full curve]
40 | CC(C)(C)OC(=O)N[C@@H](Cc1ccccc1)c1nnc(SCC(=O)c2ccc(Cl)cc2)o1 | active: 25.9 µM
41 | CC(=O)OCC(NC(=O)C(Cc1ccccc1)NC(=O)OC(C)(C)C)C1OC(n2cc(F)c(=O)[nH]c2=O)C(OC(C)=O)C1OC(C)=O (centres undefined) | inactive
42 | Cc1ccc(N2CC(C)Cn3c2nc2c3c(=O)n(Cc3cccc(Cl)c3)c(=O)n2C)cc1 (centres undefined) | inconclusive: 14.6 µM [activator, partial curve, poor fit]
43 | COc1cc(CNC(=O)c2cccc(COc3ccc(Cl)cc3)c2)cc(OC)c1 | inconclusive: 0.291 µM [activator, full curve, poor fit]
44 | Cc1ccc(NS(=O)(=O)c2cc3c(cc2N2CCCCC2)NC(=O)CC3)cc1C | inconclusive: 29.1 µM [falling, single point]

Row | Structure (SMILES) | Potency
45 | O=C(NCCOc1ccccc1)c1ccc2c(c1)S(=O)(=O)c1cc(Cl)ccc1C2=O | inactive
46 | CCCCCOc1ccc(NS(C)(=O)=O)cc1 | inconclusive: 16.4 µM [activator, single point]
47 | S=C(NCC1COc2ccccc2O1)Nc1ccccc1 (centres undefined) | inconclusive: 13 µM [falling, partial curve]
48 | CNC(=O)c1ccc(=O)n(Cc2cccc(C(F)(F)F)c2)c1 | inconclusive: 3.26 µM [activator, single point]
49 | Cc1nc2ccn(Cc3ccco3)c(=O)c2cc1C(=O)NCc1ccccc1 | inactive
50 | COc1cccc(OC)c1NC(=O)CN1CCN(C)CC1 | inactive
51 | CCOC(=O)C1(CCOc2ccccc2)CCN(Cc2ccc3nonc3c2)CC1 | inconclusive: 29.1 µM [falling, single point]
52 | O=S(=O)(Cc1cc(N2CCOCC2)nc(-c2ccccn2)n1)c1ccccc1 | inconclusive: 18.4 µM [falling, single point]
53 | CCOc1cc(/C=C/C(=O)Nc2ccc(C(=O)NCCN(CC)CC)cc2)ccc1OCC(C)C | inconclusive: 29.1 µM [falling, single point]
54 | CC(=O)c1ccc(Nc2nc(N3CCOCC3)nc(N3CCOCC3)n2)cc1 | inconclusive: 16.4 µM [falling, single point]
55 | CC1C(=O)N2CCCc3cc(S(=O)(=O)NCc4ccc(F)cc4)cc1c32 (centres undefined) | inconclusive: 16.4 µM [falling, single point]
56 | Cc1onc(-c2ccccc2Cl)c1C(=O)NC(=S)NCCc1ccccc1 | inconclusive: 32.6 µM [falling, single point]
57 | Cc1nn(C)c(C)c1CN(Cc1nc(-c2cc(F)ccc2F)oc1C)C1CC1 | inconclusive: 23.1 µM [falling, single point]
58 | O=C(CSc1nnc(CNc2ccccc2)o1)c1ccc2c(c1)OCCO2 | inconclusive: 16.4 µM [falling, single point]
59 | Cc1ccccc1NCCC(=O)Nc1ccc(Cl)cc1 | inconclusive: 23.1 µM [activator, single point]
60 | COc1ccc(N(CC(=O)NCc2ccccc2OC)S(=O)(=O)c2c(C)nn(C)c2C)cc1 | inconclusive: 32.6 µM [falling, single point]
61 | Nc1ccccc1Nc1cc(-c2ccccc2)[nH]n1 | inconclusive: 32.6 µM [activator, partial curve, poor fit]
62 | COc1ccccc1CNC(=O)CSCc1cnn(-c2ccccc2)c1-n1cccc1 | inconclusive: 0.082 µM [falling, full curve, poor fit]
63 | COc1ccc(C(=O)Nc2ccc3nc(N4CCOCC4)sc3c2)cc1OC | inactive
64 | O=C(CSc1nnc(NC(=O)c2ccccc2)s1)NC1CCCC1 | inconclusive: 20.6 µM [activator, partial curve]

Taken from above:
Entry for `COc1ccc(C(=O)Nc2ccc3nc(N4CCOCC4)sc3c2)cc1OC` under Potency: inactive
Entry for `CC1CCCCC12NC(=O)N(CC(=O)N1CCN(S(=O)(=O)Cc3ccccc3)CC1)C2=O` (centres undefined) under Potency: inconclusive: 29.1 µM [falling, single point]
